Assay results reported in article PMC3962490, “The Yeast Ess1 Prolyl Isomerase Controls Swi6 and Whi5 Nuclear Localization” (G3: Genes|Genomes|Genetics, 2014).
No constants are given. Whether binding was seen depends on the method and setting. Binding seen in cells or lysates may run through a third protein. Some entries that bind do so weakly or less than the wild type. Tags and fused reporters may be left off the sequences shown.

Legend:
[1] = molecular target: T1, TAP-tagged Whi5 (S. cerevisiae) (UniProt Q12416); assay: co-IP; TAP-tagged Swi6 or Whi5 precipitated from yeast cell extract with rabbit IgG-agarose beads (Protein A moiety of the tag), overnight at 4°, binding buffer 20 mM Tris-HCl pH 8.0, 137 mM NaCl, 1% NP-40, 2 mM EDTA; Western blot with anti-Ess1 antibody
T1 sequence: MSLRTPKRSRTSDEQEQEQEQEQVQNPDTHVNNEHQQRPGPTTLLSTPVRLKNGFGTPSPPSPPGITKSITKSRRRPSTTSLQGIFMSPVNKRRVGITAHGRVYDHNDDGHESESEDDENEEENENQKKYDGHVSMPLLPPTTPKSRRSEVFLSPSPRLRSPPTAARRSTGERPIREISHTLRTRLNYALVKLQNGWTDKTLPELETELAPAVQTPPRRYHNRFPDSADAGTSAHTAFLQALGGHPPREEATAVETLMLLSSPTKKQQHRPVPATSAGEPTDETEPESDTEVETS

[2] = molecular target: T2, TAP-tagged Swi6 (S. cerevisiae) (UniProt P09959); assay: as above
T2 sequence: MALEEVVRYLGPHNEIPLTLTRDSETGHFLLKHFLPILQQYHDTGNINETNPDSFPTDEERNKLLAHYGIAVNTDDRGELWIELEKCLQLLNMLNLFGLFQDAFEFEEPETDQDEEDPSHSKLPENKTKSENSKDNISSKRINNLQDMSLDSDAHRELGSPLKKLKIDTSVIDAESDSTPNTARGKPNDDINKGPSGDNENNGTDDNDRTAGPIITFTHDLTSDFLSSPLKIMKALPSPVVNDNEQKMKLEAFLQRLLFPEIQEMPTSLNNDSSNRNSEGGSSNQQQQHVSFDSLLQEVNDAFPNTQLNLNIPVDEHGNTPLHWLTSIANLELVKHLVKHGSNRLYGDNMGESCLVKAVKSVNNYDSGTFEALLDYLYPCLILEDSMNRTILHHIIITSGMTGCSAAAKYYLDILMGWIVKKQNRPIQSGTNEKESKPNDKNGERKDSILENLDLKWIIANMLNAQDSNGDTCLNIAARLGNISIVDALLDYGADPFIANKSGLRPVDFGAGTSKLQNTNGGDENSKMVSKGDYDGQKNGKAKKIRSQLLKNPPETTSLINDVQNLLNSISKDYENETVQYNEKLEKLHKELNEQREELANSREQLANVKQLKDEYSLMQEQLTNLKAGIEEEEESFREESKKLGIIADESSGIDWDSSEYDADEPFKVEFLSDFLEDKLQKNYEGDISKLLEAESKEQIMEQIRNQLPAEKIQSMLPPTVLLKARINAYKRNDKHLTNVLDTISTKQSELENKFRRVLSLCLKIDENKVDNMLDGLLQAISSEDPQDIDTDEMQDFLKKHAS

B1: Ess1 (endogenous, yeast cell extract) (enzyme, UniProt P22696 1-170)
chain: MPSDVASRTGLPTPWTVRYSKSKKREYFFNPETKHSQWEEPEGTNKDQLHKHLRDHPVRVRCLHILIKHKDSRRPASHRSENITISKQDATDELKTLITRLDDDSKTNSFEALAKERSDCSSYKRGGDLGWFGRGEMQPSFEDAAFQLKVGEVSDIVESGSGVHVIKRVG
Question: With B1 as the binder, how does the binding [1] read?
Answer: Its binding is “binds”.

Question: What about the binding [2] of the same binder?
Answer: The binding was “binds”.
